Results published in the supplement of paper PMC12823440, “Inhibitors supercharge kinase turnover through native proteolytic circuits” (Nature, 2025).
Structures can show the parent of a compound that is named as a salt. The list shows a part of the results. The calls rarely recur for the same compound in another form.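 Kinases were expressed as nanoluciferase fusions in K562 cells and luminescence was read every 4 h between 2 and 18 h as percent of control, DMSO set to 100% and a positive control to 0%. A time point counts as decreased when the signal drops significantly (2 sigma). The hit call is the authors' own, does not follow from the count of time points alone, and its rule is not shown.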

Protein sequences, listed by entry. Tags and fused reporters are not part of them. Lines headed by an entry give the natural chain unless they say otherwise; changes in a name come on top.
UniProt Q8IWU2: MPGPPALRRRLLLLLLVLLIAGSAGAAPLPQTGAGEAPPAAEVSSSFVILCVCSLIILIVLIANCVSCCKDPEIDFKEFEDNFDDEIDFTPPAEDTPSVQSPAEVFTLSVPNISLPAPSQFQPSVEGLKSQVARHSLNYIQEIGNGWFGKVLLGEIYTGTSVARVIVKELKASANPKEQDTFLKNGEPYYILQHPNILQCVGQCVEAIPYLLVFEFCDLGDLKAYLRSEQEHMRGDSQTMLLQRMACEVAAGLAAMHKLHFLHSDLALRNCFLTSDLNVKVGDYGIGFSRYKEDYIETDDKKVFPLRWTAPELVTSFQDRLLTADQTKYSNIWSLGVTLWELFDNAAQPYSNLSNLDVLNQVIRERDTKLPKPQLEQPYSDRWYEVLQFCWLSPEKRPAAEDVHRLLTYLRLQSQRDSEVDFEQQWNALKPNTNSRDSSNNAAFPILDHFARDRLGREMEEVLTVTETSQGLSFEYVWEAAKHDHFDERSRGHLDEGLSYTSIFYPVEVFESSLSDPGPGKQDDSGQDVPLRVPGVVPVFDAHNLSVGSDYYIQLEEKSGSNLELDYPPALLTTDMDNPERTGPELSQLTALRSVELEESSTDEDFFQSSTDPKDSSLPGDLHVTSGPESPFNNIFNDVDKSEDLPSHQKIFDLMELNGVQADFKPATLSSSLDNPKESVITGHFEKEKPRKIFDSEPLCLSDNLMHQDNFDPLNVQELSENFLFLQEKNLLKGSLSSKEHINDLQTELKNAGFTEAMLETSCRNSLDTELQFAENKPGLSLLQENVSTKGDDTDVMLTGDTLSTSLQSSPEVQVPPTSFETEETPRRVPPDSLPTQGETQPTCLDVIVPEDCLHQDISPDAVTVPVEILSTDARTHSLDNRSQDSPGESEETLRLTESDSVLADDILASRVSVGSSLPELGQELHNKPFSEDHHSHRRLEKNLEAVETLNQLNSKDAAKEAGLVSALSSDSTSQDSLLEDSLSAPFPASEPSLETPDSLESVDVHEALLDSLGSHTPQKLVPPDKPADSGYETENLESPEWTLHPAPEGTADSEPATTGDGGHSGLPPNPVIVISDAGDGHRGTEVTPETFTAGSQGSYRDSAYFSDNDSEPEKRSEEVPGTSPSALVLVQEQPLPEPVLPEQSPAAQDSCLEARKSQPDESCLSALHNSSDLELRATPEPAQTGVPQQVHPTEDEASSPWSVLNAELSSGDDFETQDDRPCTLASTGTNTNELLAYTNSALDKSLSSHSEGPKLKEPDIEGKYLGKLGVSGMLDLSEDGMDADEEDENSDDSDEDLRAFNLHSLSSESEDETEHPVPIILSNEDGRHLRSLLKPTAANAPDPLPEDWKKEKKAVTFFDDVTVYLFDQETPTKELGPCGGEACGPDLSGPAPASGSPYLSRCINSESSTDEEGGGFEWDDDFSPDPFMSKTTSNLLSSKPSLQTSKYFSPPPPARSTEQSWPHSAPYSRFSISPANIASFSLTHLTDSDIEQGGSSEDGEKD
UniProt P07948: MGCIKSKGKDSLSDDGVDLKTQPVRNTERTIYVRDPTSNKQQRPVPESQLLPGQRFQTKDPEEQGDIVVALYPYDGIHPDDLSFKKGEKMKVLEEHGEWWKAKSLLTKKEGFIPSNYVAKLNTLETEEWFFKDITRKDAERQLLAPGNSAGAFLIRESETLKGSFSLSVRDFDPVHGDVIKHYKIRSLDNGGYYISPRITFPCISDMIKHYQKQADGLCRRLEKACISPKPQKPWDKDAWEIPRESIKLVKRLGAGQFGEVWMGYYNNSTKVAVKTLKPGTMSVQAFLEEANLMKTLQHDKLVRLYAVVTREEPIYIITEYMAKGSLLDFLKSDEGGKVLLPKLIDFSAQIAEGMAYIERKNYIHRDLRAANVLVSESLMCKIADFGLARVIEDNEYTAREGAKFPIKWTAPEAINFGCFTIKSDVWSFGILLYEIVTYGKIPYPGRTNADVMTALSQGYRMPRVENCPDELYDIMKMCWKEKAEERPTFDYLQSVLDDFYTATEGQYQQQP
UniProt P28482, whole entry: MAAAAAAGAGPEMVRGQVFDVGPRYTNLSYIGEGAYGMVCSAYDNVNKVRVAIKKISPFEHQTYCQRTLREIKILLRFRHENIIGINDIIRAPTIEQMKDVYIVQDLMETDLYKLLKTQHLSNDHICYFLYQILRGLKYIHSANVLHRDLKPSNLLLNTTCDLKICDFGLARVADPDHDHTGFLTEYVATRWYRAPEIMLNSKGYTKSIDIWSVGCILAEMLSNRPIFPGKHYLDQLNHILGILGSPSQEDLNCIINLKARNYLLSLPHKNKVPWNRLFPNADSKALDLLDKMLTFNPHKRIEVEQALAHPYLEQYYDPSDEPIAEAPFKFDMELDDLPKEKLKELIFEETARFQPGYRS
UniProt P31152, whole entry: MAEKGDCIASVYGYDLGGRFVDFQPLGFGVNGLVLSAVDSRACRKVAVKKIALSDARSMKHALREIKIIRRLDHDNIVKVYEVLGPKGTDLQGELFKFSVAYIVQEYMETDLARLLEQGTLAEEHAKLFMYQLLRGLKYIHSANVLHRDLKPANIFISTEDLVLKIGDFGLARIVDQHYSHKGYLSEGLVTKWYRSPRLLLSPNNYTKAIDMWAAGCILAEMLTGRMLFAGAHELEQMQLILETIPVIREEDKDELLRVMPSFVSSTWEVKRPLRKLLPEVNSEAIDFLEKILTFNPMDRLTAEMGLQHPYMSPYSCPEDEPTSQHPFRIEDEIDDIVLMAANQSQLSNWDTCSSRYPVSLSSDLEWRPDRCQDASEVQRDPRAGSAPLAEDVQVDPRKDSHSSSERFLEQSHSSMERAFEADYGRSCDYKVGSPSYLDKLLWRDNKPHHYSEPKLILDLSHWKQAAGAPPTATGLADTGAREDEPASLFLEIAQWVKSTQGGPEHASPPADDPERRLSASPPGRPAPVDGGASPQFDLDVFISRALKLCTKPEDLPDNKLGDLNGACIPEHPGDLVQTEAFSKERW
UniProt P49137, whole entry, looked up: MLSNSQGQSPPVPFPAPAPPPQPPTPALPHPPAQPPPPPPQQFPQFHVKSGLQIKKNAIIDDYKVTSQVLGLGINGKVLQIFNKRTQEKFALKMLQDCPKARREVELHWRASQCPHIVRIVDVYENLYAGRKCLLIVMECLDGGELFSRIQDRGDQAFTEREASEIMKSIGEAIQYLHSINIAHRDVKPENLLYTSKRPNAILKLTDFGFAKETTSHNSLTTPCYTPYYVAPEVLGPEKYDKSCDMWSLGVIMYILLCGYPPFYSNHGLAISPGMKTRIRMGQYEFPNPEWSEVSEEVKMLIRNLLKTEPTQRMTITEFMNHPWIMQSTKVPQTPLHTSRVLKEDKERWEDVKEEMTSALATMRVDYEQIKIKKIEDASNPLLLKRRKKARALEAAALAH
UniProt Q16620, whole entry, looked up: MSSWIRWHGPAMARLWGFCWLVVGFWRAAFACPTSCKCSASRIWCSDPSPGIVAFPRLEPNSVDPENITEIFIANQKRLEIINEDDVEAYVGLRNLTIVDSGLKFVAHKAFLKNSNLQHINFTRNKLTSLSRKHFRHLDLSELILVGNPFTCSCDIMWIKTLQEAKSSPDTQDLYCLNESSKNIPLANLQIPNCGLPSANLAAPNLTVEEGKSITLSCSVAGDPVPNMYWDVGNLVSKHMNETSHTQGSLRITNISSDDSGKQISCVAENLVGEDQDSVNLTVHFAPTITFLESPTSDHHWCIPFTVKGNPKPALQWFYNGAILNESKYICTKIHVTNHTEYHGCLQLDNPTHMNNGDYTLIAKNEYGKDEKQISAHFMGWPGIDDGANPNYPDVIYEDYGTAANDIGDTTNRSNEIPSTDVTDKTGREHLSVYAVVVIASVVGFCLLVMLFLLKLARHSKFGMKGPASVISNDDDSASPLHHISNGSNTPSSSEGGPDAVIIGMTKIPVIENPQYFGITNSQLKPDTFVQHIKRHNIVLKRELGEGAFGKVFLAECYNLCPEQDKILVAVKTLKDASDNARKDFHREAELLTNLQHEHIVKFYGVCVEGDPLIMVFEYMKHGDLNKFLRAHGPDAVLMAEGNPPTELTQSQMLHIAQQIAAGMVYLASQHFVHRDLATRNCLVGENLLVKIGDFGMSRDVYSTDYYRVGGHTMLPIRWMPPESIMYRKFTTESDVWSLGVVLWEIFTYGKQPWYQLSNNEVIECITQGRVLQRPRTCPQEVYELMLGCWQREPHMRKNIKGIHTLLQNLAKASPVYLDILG
UniProt Q16288, whole entry, looked up: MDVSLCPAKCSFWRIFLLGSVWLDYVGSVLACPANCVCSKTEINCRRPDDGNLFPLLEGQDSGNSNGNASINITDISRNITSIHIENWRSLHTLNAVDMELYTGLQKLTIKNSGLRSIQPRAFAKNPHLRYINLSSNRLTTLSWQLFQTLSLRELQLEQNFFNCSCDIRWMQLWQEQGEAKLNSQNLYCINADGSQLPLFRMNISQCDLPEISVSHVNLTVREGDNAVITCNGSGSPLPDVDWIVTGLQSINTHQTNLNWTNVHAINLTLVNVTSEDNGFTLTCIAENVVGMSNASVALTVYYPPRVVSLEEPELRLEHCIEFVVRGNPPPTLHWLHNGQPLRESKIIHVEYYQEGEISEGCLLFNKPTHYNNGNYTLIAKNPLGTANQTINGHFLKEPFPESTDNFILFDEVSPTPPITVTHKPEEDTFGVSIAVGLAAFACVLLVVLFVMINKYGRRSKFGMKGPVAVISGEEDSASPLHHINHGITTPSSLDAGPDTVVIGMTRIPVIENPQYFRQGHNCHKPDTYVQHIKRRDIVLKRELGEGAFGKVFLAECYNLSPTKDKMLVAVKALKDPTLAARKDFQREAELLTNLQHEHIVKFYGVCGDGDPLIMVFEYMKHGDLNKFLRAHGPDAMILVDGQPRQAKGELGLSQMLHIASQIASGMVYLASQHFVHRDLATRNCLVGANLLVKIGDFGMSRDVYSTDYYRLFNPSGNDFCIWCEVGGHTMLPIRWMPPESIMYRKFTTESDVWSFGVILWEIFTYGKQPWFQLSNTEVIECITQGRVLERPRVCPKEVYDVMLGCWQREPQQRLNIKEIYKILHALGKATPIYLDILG
UniProt P09619, whole entry: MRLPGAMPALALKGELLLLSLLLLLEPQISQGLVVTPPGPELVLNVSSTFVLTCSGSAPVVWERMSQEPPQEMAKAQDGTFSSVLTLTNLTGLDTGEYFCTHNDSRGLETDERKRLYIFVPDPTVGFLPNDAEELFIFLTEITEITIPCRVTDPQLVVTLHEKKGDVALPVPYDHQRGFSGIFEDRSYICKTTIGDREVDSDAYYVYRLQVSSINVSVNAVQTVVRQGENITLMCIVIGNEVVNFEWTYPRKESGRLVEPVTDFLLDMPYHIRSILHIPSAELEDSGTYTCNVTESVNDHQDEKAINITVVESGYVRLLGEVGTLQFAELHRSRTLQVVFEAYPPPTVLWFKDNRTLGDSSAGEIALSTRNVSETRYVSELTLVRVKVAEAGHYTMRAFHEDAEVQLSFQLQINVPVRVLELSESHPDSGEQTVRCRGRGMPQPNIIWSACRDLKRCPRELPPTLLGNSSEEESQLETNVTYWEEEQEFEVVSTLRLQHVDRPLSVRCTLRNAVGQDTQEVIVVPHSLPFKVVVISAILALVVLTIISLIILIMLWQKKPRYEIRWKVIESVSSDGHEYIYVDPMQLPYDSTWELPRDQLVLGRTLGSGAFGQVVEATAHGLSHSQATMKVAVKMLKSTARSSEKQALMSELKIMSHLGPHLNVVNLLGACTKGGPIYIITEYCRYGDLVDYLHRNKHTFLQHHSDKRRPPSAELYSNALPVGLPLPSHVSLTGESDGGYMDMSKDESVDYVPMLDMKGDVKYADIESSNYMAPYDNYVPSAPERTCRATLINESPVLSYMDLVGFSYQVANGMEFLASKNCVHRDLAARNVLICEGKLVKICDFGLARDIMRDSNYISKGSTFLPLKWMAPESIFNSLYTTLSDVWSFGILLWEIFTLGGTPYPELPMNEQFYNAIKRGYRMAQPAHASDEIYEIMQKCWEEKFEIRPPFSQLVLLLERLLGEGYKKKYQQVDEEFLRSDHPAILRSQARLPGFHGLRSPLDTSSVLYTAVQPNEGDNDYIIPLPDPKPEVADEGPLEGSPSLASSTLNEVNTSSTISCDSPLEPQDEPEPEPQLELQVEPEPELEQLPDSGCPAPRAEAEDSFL
UniProt Q15118, whole entry, looked up: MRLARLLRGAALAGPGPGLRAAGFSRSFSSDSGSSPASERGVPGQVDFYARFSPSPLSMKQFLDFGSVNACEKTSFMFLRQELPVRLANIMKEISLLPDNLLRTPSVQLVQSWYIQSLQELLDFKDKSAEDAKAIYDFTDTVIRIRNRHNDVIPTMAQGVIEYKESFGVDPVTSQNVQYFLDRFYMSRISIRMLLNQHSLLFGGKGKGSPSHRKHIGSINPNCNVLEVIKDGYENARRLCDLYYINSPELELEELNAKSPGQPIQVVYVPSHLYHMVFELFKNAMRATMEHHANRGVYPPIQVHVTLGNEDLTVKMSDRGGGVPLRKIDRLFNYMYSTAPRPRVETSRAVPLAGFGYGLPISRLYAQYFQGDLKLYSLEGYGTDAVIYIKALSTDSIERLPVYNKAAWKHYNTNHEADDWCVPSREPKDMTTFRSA

Assays:
Experiment in all cases: kinase-Nluc reporter destabilization hit call (1 = scored as downregulated) (binary); higher = compound decreases kinase abundance
Conditions in all cases: K562; 2-18 h
[1] = biological target: IRAK3 (UniProt Q9Y616)
[2] = biological target: JAK1 (UniProt P23458)
[3] = biological target: LCK (UniProt P06239)
[4] = biological target: LIMK1 (UniProt P53667)
[5] = biological target: LIMK2 (UniProt P53671)
[6] = biological target: LMTK2 (UniProt Q8IWU2)
[7] = biological target: LYN (UniProt P07948)
[8] = biological target: MAP2K1 (UniProt Q02750)
[9] = biological target: MAP2K2 (UniProt P36507)
[10] = biological target: MAP4K2 (UniProt Q12851)
[11] = biological target: MAPK1 (UniProt P28482)
[12] = biological target: MAPK4 (UniProt P31152)
[13] = biological target: MAPKAPK2 (UniProt P49137)
[14] = biological target: MKNK1 (UniProt Q9BUB5)
[15] = biological target: NTRK2 (UniProt Q16620)
[16] = biological target: NTRK3 (UniProt Q16288)
[17] = biological target: PAK4 (UniProt O96013)
[18] = biological target: PBK (UniProt Q96KB5)
[19] = biological target: PDGFRB (UniProt P09619)
[20] = biological target: PDK1 (UniProt Q15118)

Measured: kinase-Nluc reporter destabilization hit call

C=CC(=O)Nc1cccc(Oc2nc(Nc3ccc(N4CCN(C)CC4)c(F)c3)nc3[nH]ccc23)c1 [Avitinib (maleate)] (2.5 µM)
inactive: [1] 0 | [2] 0 | [3] 0 | [4] 0 | [5] 0 | [6] 0 | [7] 0 | [8] 0 | [9] 0 | [10] 0 | [11] 0 | [12] 0 | [13] 0 | [14] 0 | [15] 0 | [16] 0 | [17] 0 | [18] 0 | [19] 0 | [20] 0

COC(=O)[C@H](CCSC)NC(=O)c1ccc(NC[C@@H](N)CS)cc1-c1ccccc1 [FTI-277 (hydrochloride)] (10 µM)
inactive: [1] 0 | [2] 0 | [3] 0 | [4] 0 | [5] 0 | [6] 0 | [7] 0 | [8] 0 | [9] 0 | [10] 0 | [11] 0 | [12] 0 | [13] 0 | [14] 0 | [15] 0 | [16] 0 | [17] 0 | [18] 0 | [19] 0 | [20] 0

C[C@H]1O[C@@H](O[C@H]2CC[C@@]3(C)[C@@H](CC[C@]4(C)[C@@H]3C=C[C@]35OC[C@@]6(CCC(C)(C)C[C@H]63)[C@H](O)C[C@]54C)[C@]2(C)CO)[C@H](O)[C@@H](O[C@@H]2O[C@H](CO)[C@@H](O)[C@H](O)[C@H]2O)[C@H]1O [Saikosaponin D] (2.5 µM)
inactive: [1] 0 | [2] 0 | [3] 0 | [4] 0 | [5] 0 | [6] 0 | [7] 0 | [8] 0 | [9] 0 | [10] 0 | [11] 0 | [12] 0 | [13] 0 | [14] 0 | [15] 0 | [16] 0 | [17] 0 | [18] 0 | [19] 0 | [20] 0

COc1cc(N2CCC(N3CCN(C)CC3)CC2)ccc1Nc1ncc(Cl)c(-c2c[nH]c3ccccc23)n1 (2.5 µM)
inactive: [1] 0 | [2] 0 | [3] 0 | [4] 0 | [5] 0 | [6] 0 | [7] 0 | [8] 0 | [9] 0 | [10] 0 | [11] 0 | [12] 0 | [13] 0 | [14] 0 | [15] 0 | [16] 0 | [17] 0 | [18] 0 | [19] 0 | [20] 0

Cc1ccc(C(=O)NC2CC2)cc1-n1ncc(C(=O)c2cccc(C#N)c2)c1N [Acumapimod] (10 µM)
inactive: [1] 0 | [2] 0 | [3] 0 | [4] 0 | [5] 0 | [6] 0 | [7] 0 | [8] 0 | [9] 0 | [10] 0 | [11] 0 | [12] 0 | [13] 0 | [14] 0 | [15] 0 | [16] 0 | [17] 0 | [18] 0 | [19] 0 | [20] 0

NC(=O)c1ccc(N(C(N)=O)c2c(F)cccc2F)nc1-c1ccc(F)cc1F (10 µM)
inactive: [1] 0 | [2] 0 | [3] 0 | [4] 0 | [5] 0 | [6] 0 | [7] 0 | [8] 0 | [9] 0 | [10] 0 | [11] 0 | [12] 0 | [13] 0 | [14] 0 | [15] 0 | [16] 0 | [17] 0 | [18] 0 | [19] 0 | [20] 0

COc1cc2cc(Oc3ccc4ccc(=O)oc4c3)c(=O)oc2cc1O [Daphnoretin] (10 µM)
inactive: [1] 0 | [2] 0 | [3] 0 | [4] 0 | [5] 0 | [6] 0 | [7] 0 | [8] 0 | [9] 0 | [10] 0 | [11] 0 | [12] 0 | [13] 0 | [14] 0 | [15] 0 | [16] 0 | [17] 0 | [18] 0 | [19] 0 | [20] 0

C=CC(=O)Nc1cc(Nc2nccc(-c3cn(C)c4ccccc34)n2)c(OC)cc1N(C)CCNC [AZ7550 Mesylate] (2.5 µM)
inactive: [1] 0 | [2] 0 | [3] 0 | [4] 0 | [5] 0 | [6] 0 | [7] 0 | [8] 0 | [9] 0 | [10] 0 | [11] 0 | [12] 0 | [13] 0 | [14] 0 | [15] 0 | [16] 0 | [17] 0 | [18] 0 | [19] 0 | [20] 0

CC(C)[C@H](CO)Nc1nc(Nc2cccc(Cl)c2)c2ncn(C(C)C)c2n1 [Purvalanol A] (10 µM)
inactive: [1] 0 | [2] 0 | [3] 0 | [4] 0 | [5] 0 | [6] 0 | [7] 0 | [8] 0 | [9] 0 | [10] 0 | [11] 0 | [12] 0 | [13] 0 | [14] 0 | [15] 0 | [16] 0 | [17] 0 | [18] 0 | [19] 0 | [20] 0

COc1c(O)cc2oc(-c3ccc(O)cc3)cc(=O)c2c1O [Hispidulin] (10 µM)
inactive: [1] 0 | [2] 0 | [3] 0 | [4] 0 | [5] 0 | [6] 0 | [7] 0 | [8] 0 | [9] 0 | [10] 0 | [11] 0 | [12] 0 | [13] 0 | [14] 0 | [15] 0 | [16] 0 | [17] 0 | [18] 0 | [19] 0 | [20] 0

CC(C)n1c([C@H](C)Nc2ncnc(N)c2C#N)cc2cccc(-c3ccc(=O)n(C)c3)c2c1=O (10 µM)
inactive: [1] 0 | [2] 0 | [3] 0 | [4] 0 | [5] 0 | [6] 0 | [7] 0 | [8] 0 | [9] 0 | [10] 0 | [11] 0 | [12] 0 | [13] 0 | [14] 0 | [15] 0 | [16] 0 | [17] 0 | [18] 0 | [19] 0 | [20] 0

Cc1cc(-n2c(=O)ccc3c[nH]c4nccc-4c32)ccc1F (10 µM)
inactive: [1] 0 | [2] 0 | [3] 0 | [4] 0 | [5] 0 | [6] 0 | [7] 0 | [8] 0 | [9] 0 | [10] 0 | [11] 0 | [12] 0 | [13] 0 | [14] 0 | [15] 0 | [16] 0 | [17] 0 | [18] 0 | [19] 0 | [20] 0

O=C(O)[C@H]1O[C@@H](Oc2cc3oc(-c4ccc(O)cc4)cc(=O)c3c(O)c2O)[C@H](O)[C@@H](O)[C@@H]1O [Scutellarin] (10 µM)
inactive: [1] 0 | [2] 0 | [3] 0 | [4] 0 | [5] 0 | [6] 0 | [7] 0 | [8] 0 | [9] 0 | [10] 0 | [11] 0 | [12] 0 | [13] 0 | [14] 0 | [15] 0 | [16] 0 | [17] 0 | [18] 0 | [19] 0 | [20] 0

Sorted by heavy-atom count (smallest number first): some entries from above
Cc1cc(-n2c(=O)ccc3c[nH]c4nccc-4c32)ccc1F (10 µM)
inactive: [1] 0 | [2] 0 | [3] 0 | [4] 0 | [5] 0 | [6] 0 | [7] 0 | [8] 0 | [9] 0 | [10] 0 | [11] 0 | [12] 0 | [13] 0 | [14] 0 | [15] 0 | [16] 0 | [17] 0 | [18] 0 | [19] 0 | [20] 0

CC(C)[C@H](CO)Nc1nc(Nc2cccc(Cl)c2)c2ncn(C(C)C)c2n1 [Purvalanol A] (10 µM)
inactive: [1] 0 | [2] 0 | [3] 0 | [4] 0 | [5] 0 | [6] 0 | [7] 0 | [8] 0 | [9] 0 | [10] 0 | [11] 0 | [12] 0 | [13] 0 | [14] 0 | [15] 0 | [16] 0 | [17] 0 | [18] 0 | [19] 0 | [20] 0

CC(C)n1c([C@H](C)Nc2ncnc(N)c2C#N)cc2cccc(-c3ccc(=O)n(C)c3)c2c1=O (10 µM)
inactive: [1] 0 | [2] 0 | [3] 0 | [4] 0 | [5] 0 | [6] 0 | [7] 0 | [8] 0 | [9] 0 | [10] 0 | [11] 0 | [12] 0 | [13] 0 | [14] 0 | [15] 0 | [16] 0 | [17] 0 | [18] 0 | [19] 0 | [20] 0

Next part.

CNC(=O)c1ccc2c(C(=Nc3cccc(CN(C)C)c3)c3ccccc3)c(O)[nH]c2c1 [MEK inhibitor] (10 µM)
inactive: [1] 0 | [2] 0 | [3] 0 | [4] 0 | [5] 0 | [6] 0 | [7] 0 | [8] 0 | [9] 0 | [10] 0 | [11] 0 | [12] 0 | [13] 0 | [14] 0 | [15] 0 | [16] 0 | [17] 0 | [18] 0 | [19] 0 | [20] 0

Nc1ncc(C(=O)NC2CN(C(=O)C3CC3)C2)c2ccc(-c3cccc(F)c3)nc12 (2 µM)
inactive: [1] 0 | [2] 0 | [3] 0 | [4] 0 | [5] 0 | [6] 0 | [7] 0 | [8] 0 | [9] 0 | [10] 0 | [11] 0 | [12] 0 | [13] 0 | [14] 0 | [15] 0 | [16] 0 | [17] 0 | [18] 0 | [19] 0 | [20] 0

O=C(O)c1cc(N(Cc2ccccc2O)Cc2cc(O)ccc2O)ccc1O [Lavendustin A] (10 µM)
inactive: [1] 0 | [2] 0 | [3] 0 | [4] 0 | [5] 0 | [6] 0 | [7] 0 | [8] 0 | [9] 0 | [10] 0 | [11] 0 | [12] 0 | [13] 0 | [14] 0 | [15] 0 | [16] 0 | [17] 0 | [18] 0 | [19] 0 | [20] 0

COc1cc(-c2cc(-c3ccc(N4CCNCC4)cc3)cnc2C)cc(OC)c1OC (10 µM)
inactive: [1] 0 | [2] 0 | [3] 0 | [4] 0 | [5] 0 | [6] 0 | [7] 0 | [8] 0 | [9] 0 | [10] 0 | [11] 0 | [12] 0 | [13] 0 | [14] 0 | [15] 0 | [16] 0 | [17] 0 | [18] 0 | [19] 0 | [20] 0

Oc1c(F)cc(-c2cnccc2-c2ccc(N3CCOCC3)cc2)cc1F (10 µM)
inactive: [1] 0 | [2] 0 | [3] 0 | [4] 0 | [5] 0 | [6] 0 | [7] 0 | [8] 0 | [9] 0 | [10] 0 | [11] 0 | [12] 0 | [13] 0 | [14] 0 | [15] 0 | [16] 0 | [17] 0 | [18] 0 | [19] 0 | [20] 0
